The results in this text go back to paper PMC7076256.

By UniProt entry, the sequences of proteins in these tests, tags left out.
UniProt Q86TM6: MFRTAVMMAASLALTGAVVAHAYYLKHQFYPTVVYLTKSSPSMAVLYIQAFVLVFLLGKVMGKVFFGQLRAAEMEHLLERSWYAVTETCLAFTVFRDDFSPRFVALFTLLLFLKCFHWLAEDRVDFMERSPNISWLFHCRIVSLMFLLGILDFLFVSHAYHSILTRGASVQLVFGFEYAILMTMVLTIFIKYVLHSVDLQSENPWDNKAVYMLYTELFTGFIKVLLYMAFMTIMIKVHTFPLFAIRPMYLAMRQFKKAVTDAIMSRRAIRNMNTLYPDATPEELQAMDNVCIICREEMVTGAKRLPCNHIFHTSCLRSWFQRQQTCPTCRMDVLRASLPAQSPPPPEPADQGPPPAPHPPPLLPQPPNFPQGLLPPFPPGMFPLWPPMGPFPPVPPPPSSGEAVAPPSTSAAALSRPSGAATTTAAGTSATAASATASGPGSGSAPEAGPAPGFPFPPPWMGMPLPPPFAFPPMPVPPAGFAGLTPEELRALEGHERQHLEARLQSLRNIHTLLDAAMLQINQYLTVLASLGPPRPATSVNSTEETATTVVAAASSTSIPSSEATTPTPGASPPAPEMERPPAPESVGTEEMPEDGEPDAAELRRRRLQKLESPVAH

Results are given in words; binding and its absence hold for the method and conditions named. Binding seen in cells or lysates may run through a third protein. Some entries that bind do so weakly or less than the wild type.

The target in the assay is T1, endogenous SIRT2 (human (endogenous in A549)) (UniProt Q8IXJ6).
T1 sequence: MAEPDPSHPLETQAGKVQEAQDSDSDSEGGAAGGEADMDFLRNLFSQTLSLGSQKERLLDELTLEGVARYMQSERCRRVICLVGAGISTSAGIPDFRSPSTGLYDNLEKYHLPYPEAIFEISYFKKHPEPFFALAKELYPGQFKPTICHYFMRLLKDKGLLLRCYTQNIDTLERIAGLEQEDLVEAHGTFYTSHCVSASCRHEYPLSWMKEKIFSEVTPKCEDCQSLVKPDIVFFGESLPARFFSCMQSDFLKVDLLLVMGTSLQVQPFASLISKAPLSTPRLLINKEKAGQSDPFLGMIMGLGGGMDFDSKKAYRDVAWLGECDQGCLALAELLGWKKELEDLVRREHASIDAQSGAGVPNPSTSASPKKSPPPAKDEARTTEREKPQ
Description: co-IP; endogenous proteins in A549 cells; normal mouse IgG (mIgG) as control.

As to “endogenous HRD1 (from UniProt Q86TM6 1-617)”, the binding entry is given as “binds”.
